Assay results reported in PMC10018501 (ACS Omega, 2023).

Columns and labels:
[1] = system: nondifferentiated SH-SY5Y cells; assay: Neuroprotective estimation; type: cell-based; details: Homo sapiens, 24 h, read-out: cell viability
[2] = system: catalase; assay: Ex vivo catalase assay; type: in vivo, rat; details: scopolamine-treated rats; SD-6 2.5, 5, 10 mg/kg; donepezil 5 mg/kg
[3] = system: glutathione (GSH); assay: Ex vivo reduced glutathione; type: in vivo, rat; details: scopolamine-treated rats; SD-6 2.5, 5, 10 mg/kg; donepezil 5 mg/kg
[4] = system: superoxide dismutase (SOD); assay: Ex vivo SOD assay; type: in vivo, rat; details: scopolamine-treated rats; SD-6 2.5, 5, 10 mg/kg; donepezil 5 mg/kg
[5] = in vitro; details: PAMPA, pH 7.4
[6] = system: hippocampal brain (dentate gyrus) neurons; assay: Brain tissue histopathology; type: in vivo, rat; details: Aβ1–42 rats, SD-6 10 mg/kg, donepezil 5 mg/kg
[7] = system: malonaldehyde (MDA); assay: Ex vivo MDA estimation; type: in vivo, rat; details: scopolamine-treated rats; SD-6 2.5, 5, 10 mg/kg; donepezil 5 mg/kg

COc1cc2c(cc1OC)C(=O)C(CC1CCN(Cc3ccccc3)CC1)C2 (stereo not shown) [donepezil, reference compound]
viability at 5 µM [1]: 57.9% | viability at 10 µM [1]: 70.8% | viability at 20 µM [1]: 81.3% | catalase activity [2]: statistically significant | GSH level [3]: statistically significant | SOD level [4]: significantly different | Papp at 18 h, 25 μg/mL [5]: 5.264 ± 0.022 ×10⁻⁶ cm/s | neuronal morphology (dentate gyrus) [6]: less disordered neuronal arrangement and vacuolar fibrosis | neuronal density (dentate gyrus) ([6]; vs Aβ1–42-treated group): higher | MDA level [7]: significantly different
